Test results reported in paper PMC12116747.
Results are given in words; binding and its absence hold for the method and conditions named. In cells and extracts the contact can be indirect. These calls come from enrichment with a bait or labelling near it, and not all partners need be listed.

Chains of the proteins cited; added tags and fusions are not shown.
UniProt O43809: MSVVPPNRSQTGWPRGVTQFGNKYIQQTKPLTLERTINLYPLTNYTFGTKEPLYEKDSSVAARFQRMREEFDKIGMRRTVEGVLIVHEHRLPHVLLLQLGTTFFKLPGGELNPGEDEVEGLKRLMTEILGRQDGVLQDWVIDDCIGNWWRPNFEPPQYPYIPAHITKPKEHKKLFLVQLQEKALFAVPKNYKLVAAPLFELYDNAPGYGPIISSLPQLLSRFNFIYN
UniProt Q92769: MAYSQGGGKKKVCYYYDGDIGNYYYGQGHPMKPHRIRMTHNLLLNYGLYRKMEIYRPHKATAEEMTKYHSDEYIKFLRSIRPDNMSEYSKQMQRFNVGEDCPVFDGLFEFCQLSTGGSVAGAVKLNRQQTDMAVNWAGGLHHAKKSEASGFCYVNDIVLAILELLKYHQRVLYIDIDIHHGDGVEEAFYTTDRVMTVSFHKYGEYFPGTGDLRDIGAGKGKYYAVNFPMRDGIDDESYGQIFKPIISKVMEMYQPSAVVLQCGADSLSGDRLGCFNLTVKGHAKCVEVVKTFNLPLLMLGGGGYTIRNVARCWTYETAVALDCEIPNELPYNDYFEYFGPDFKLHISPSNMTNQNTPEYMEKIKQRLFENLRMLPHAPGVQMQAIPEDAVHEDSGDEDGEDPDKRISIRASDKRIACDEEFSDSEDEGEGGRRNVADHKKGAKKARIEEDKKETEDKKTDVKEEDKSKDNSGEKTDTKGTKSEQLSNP

Target: NUDT21 (immunoprecipitated from cells; Co-IP with AARS1 and LC-MS/MS) (human) (UniProt O43809)
Assay: affinity purification with mass spectrometry; LC-MS/MS after NUDT21 immunoprecipitation; cells not told

Question: Which binding does the source give for “HDAC2 (found by LC-MS/MS in the NUDT21 immunoprecipitate) (from UniProt Q92769 1-488) (enzyme)” here?
Answer: The binding was “binds”.
